## Percent effect of library compounds

Chains of the proteins cited; added tags and fusions are not shown.
UniProt P9WFT3, whole entry: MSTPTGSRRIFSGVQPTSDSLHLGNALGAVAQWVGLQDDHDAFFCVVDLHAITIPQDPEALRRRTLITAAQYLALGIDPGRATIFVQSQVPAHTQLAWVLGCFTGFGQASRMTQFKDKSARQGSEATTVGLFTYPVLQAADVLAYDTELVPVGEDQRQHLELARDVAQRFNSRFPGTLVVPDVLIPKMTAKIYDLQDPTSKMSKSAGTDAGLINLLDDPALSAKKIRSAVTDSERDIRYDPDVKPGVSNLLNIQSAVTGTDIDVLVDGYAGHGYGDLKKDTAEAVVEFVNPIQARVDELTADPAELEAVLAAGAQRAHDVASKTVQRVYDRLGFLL
UniProt P9WPC5, whole entry: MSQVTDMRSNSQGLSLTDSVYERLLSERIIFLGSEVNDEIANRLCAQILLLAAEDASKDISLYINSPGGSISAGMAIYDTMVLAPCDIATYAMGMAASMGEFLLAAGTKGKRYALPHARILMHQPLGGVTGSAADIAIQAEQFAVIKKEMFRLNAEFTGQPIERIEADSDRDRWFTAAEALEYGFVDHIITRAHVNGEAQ
UniProt P9WPC3, whole entry partner: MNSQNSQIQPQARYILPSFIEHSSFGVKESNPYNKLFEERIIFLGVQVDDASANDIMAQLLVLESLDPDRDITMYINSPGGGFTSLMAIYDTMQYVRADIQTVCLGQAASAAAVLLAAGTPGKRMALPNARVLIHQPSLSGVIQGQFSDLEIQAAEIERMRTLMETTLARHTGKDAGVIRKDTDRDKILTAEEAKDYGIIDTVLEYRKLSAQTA
UniProt P9WNZ1, whole entry: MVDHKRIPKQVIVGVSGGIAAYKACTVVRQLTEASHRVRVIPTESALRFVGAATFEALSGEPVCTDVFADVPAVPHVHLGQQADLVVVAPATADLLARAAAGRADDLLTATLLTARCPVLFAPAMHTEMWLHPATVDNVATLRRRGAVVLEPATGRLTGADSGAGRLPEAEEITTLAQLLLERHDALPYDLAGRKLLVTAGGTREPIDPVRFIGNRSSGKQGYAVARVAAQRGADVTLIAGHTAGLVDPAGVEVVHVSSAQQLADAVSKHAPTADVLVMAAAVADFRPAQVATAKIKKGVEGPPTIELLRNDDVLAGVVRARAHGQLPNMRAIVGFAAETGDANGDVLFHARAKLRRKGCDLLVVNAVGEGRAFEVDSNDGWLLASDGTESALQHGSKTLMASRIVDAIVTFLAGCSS
UniProt I6X8D2, whole entry: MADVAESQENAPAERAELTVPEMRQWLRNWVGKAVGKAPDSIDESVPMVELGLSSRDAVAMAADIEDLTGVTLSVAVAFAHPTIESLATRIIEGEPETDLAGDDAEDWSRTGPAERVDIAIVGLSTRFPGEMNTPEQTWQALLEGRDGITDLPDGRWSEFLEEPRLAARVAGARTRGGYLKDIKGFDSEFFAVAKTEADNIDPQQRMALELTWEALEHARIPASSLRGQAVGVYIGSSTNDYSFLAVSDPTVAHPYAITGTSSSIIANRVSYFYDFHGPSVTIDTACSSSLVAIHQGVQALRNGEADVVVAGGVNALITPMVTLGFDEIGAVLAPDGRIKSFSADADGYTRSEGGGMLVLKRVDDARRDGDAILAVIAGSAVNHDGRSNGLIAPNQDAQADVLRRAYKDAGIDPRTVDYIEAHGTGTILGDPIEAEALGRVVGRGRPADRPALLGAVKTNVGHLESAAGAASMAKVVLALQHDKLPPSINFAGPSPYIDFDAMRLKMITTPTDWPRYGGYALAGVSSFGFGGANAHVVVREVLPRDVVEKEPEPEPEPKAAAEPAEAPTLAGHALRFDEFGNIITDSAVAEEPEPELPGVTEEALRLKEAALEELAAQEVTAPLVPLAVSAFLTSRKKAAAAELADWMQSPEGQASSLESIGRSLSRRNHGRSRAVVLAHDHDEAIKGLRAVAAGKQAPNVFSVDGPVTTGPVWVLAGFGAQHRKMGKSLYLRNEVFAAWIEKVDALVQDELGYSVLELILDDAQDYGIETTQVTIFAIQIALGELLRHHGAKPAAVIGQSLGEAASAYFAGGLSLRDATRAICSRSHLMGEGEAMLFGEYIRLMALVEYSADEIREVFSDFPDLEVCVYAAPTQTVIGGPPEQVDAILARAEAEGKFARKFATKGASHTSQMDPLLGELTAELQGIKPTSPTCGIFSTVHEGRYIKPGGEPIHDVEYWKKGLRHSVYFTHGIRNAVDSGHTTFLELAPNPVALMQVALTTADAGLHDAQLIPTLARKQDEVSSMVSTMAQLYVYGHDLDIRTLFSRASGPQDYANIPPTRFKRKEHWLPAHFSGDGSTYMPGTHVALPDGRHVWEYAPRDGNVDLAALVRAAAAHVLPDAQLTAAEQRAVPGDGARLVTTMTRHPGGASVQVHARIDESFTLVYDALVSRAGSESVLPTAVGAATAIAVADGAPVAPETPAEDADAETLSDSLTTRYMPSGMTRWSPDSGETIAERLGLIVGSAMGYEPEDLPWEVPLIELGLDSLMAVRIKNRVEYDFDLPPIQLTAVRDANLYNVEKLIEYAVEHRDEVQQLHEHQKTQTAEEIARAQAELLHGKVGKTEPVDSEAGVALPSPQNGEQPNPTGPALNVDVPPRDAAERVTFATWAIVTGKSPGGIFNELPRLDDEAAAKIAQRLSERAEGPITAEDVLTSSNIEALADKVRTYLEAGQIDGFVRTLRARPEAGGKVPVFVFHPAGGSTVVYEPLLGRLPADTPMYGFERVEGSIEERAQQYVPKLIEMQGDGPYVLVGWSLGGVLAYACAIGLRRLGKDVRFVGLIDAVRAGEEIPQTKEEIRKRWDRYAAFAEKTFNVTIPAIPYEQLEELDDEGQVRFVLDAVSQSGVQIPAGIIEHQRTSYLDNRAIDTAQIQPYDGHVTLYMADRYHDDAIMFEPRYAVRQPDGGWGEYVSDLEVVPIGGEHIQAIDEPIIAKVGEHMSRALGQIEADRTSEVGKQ

Data taken from ChEMBL document CHEMBL3988442, “University of Dundee, Small-Polar-MMV Screening Library” (2021).

Values are the deposited “Percent Effect”, in %. The controls that fix the scale are not given in the record; negative values are as filed. This is an unselected part of the compounds tested. Two or more numbers in one place are separate tests of the same structure; such repeats can differ widely.

MtTrpRS: 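Enzyme assay of tryptophanyl-tRNA synthetase; the read-out is not stated. Target: Tryptophan-tRNA ligase, Mycobacterium tuberculosis (UniProt P9WFT3). Tested at 10 µM. Direction is not recorded; retested compounds ran higher, which suggests that high means inhibition. Of about 65,000 compounds tested this way, about 64 (0.098%) reached 50% or more in at least one test.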
Toxoplasma: 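Assay of Toxoplasma gondii numbers, read through their beta-galactosidase reporter with a colour substrate. Tested at 10 µM. The record gives no direction; the compounds picked for IC50 retests had high values, so higher reads as fewer parasites. Of about 67,000 compounds tested this way, about 260 (0.38%) reached 50% or more in at least one test.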
ClpP1P2: 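ClpP1P2, Mycobacterium tuberculosis (UniProt P9WPC5 and UniProt P9WPC3). Protease assay of ClpP1P2, read by the AMC dye that it sets free. Compounds at 50 µM. Direction is inferred from only a few compounds that gave an IC50; most scored high, so higher reads as stronger inhibition. Most other retested compounds had strongly negative values. Size under these conditions: about 69,000 compounds, about 10 of them at 50% or above in at least one test.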
CoaBC: 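Coenzyme A biosynthesis protein CoaBC, Mycobacterium tuberculosis (UniProt P9WNZ1). Enzyme assay of CoaBC with a phosphate dye (Biomol Green) read at 650 nm. Compounds at 30 µM. Direction is inferred from only a few compounds that gave an IC50; most scored high, so higher reads as stronger inhibition. Most strong results did not repeat in a second test. About 67,000 compounds were tested under these conditions; 0.06% (about 40) showed 50% or more at least once.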
Pks13 thioesterase: 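Enzyme assay of the thioesterase domain of polyketide synthase 13; the read-out is not stated. Target: Polyketide synthase Pks13, Mycobacterium tuberculosis (UniProt I6X8D2). Concentration: 30 µM. Higher reads as stronger inhibition (inferred from which compounds were picked for retests). About 67,000 compounds were tested under these conditions; 0.46% (about 300) showed 50% or more at least once.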

For CCOC(=O)N1CCC(NCC2CCN(c3cnn(C)c(=O)c3)C2)CC1 (configuration not stated) the result was MtTrpRS: 0.3882%; Toxoplasma: 6.047%; ClpP1P2: 0.9768%; CoaBC: 9.451%; Pks13 thioesterase: -24.51%. CCN1CCC(N2CCN(c3cc(-c4nc(C)no4)ccn3)CC2)CC1 read MtTrpRS: 3.011%; Toxoplasma: -0.3474%; ClpP1P2: 4.343%; CoaBC: 0.216%; Pks13 thioesterase: -5.616%. With CCn1ncc2c1CCCC2NCc1ccc(C)s1 (configuration not stated) the screen gave MtTrpRS: 3.173%; Toxoplasma: 3.011%; ClpP1P2: -3.722%; CoaBC: -1.512%; Pks13 thioesterase: -11.98%. COc1ccccc1N1CCN(C(=O)CCn2ccnc2C)CC1(C)C read MtTrpRS: -2.545%; Toxoplasma: 4.39%; ClpP1P2: 10.58%; CoaBC: -4.106%; Pks13 thioesterase: -1.662%. O=S(=O)(c1cccs1)N1CCC(c2nc(-c3cccs3)no2)CC1 gave MtTrpRS: 8.062%; Toxoplasma: -10.7%; ClpP1P2: 11.05%; CoaBC: -4.622%; Pks13 thioesterase: -15.54%. Result for NCc1cn(-c2ccccc2C(=O)NCc2cccc(Cl)c2)cn1 was MtTrpRS: -0.75%; Toxoplasma: -7.561%; ClpP1P2: -7.814%; CoaBC: 7.199%; Pks13 thioesterase: -6.625%. With Cc1ncsc1C(=O)NCC1SCCc2ccccc21 (configuration not stated) the screen gave MtTrpRS: 2.987%; Toxoplasma: 3.808%; ClpP1P2: 11.63%; CoaBC: -3.478%; Pks13 thioesterase: -15.17%.

O=C(NCCCn1cccn1)N1CCCC1c1cccs1 (configuration not stated) read MtTrpRS: 0.2172%; Toxoplasma: -4.884%; ClpP1P2: -0.9726%; CoaBC: -6.198%; Pks13 thioesterase: -1.113%. COCC1CC2(CCN(c3cccc(C)n3)CC2)CN1C(C)C.O=C(O)C(F)(F)F.O=C(O)C(F)(F)F (configuration not stated) read Toxoplasma: 3.733%. Result for Cc1nc(C2(NCC(=O)NC(=O)NCC(F)(F)F)CCCCC2)no1 was MtTrpRS: 1.174%; Toxoplasma: 8.117%; ClpP1P2: 5.005%; CoaBC: -3.008%; Pks13 thioesterase: -12.23%. CCOc1ccc(NC(=O)Cc2cc(C)[nH]n2)cc1CO read MtTrpRS: 4.541%; Toxoplasma: -2.913%; ClpP1P2: 5.739%; Pks13 thioesterase: -9.563%. CCCc1n[nH]c(C2CN(CCC(F)(F)F)CCO2)n1 (configuration not stated) gave MtTrpRS: -3.706%; Toxoplasma: 3.765%; ClpP1P2: -4.416%; CoaBC: 3.435%; Pks13 thioesterase: -9.444%. CC(C)N1CCc2onc(Cn3cccc3)c2C1.O=C(O)C(F)(F)F gave Toxoplasma: 11.62%. CCc1ccccc1Nc1noc2c1CN(C(=O)CCOC)CC2 gave MtTrpRS: 7.13%; Toxoplasma: 27.95%; ClpP1P2: 12.11%; CoaBC: -2.676%; Pks13 thioesterase: -12.9%.

With Cc1ccc(CN2CC[C@@H](NC(=O)c3cccnc3)[C@H](O)C2)o1 the screen gave MtTrpRS: 0.6365%; Toxoplasma: 1.098%; ClpP1P2: -5.389%; CoaBC: 6.378%; Pks13 thioesterase: -13.67%. Result for O=C(O)C(F)(F)F.c1coc(CN2CCC3(CCOCC3COCC3CC3)CC2)c1 (configuration not stated) was Toxoplasma: -3.11%. For Cn1cc(CCNC(=O)N2CCCc3c(F)cccc32)cn1 the result was MtTrpRS: 12.04%; Toxoplasma: 16.41%; ClpP1P2: -2.809%; CoaBC: 9.208%; Pks13 thioesterase: -11.99%. Cc1cnn(CC(C)NCC(=O)NCCc2cccs2)c1 (configuration not stated) gave MtTrpRS: 0.5045%; Toxoplasma: -0.1079%; ClpP1P2: 11.31%; Pks13 thioesterase: -15.19%. CC(C)=CCN1C[C@H]2CC[C@@H]1CN(C(=O)CCc1n[nH]c(C)n1)C2 read MtTrpRS: -4.052%; ClpP1P2: -35.19%; CoaBC: 1.118%; Pks13 thioesterase: -14.28%. Cc1cc(C(F)(F)F)c2c(C3CCN(S(=O)(=O)N(C)C)CC3)noc2n1 read MtTrpRS: 0.4181%; Toxoplasma: -5.573%; ClpP1P2: 3.128%; CoaBC: -1.389%; Pks13 thioesterase: -36.47%. With COc1cc(NCc2c(C)noc2C)c(OC)cc1Cl the screen gave MtTrpRS: -3.199%; Toxoplasma: 3.366%; ClpP1P2: 1.763%; CoaBC: 3.125%; Pks13 thioesterase: -27.35%.

Result for O=C(O)C(c1ccc2c(c1)OCCO2)N1CCC(N2CCSCC2)CC1 (configuration not stated) was MtTrpRS: 2.065%; Toxoplasma: -5.626%; ClpP1P2: 17.37%; CoaBC: 0.6734%; Pks13 thioesterase: -4.257%. [H][C@@]12CCN(CCN(C)C)[C@@]1([H])CCN2C(=O)c1cccc(Cl)c1 read Toxoplasma: 11.94%. N#Cc1ccc(OC[C@]23COC[C@H]2CN(Cc2nccs2)C3)nc1 read MtTrpRS: -3.303%; ClpP1P2: -5.53%; CoaBC: 0.3699%; Pks13 thioesterase: -1.919%. With CC(C)CNC(=O)Nc1cccc(OCC#N)c1 the screen gave MtTrpRS: -2.761%; Toxoplasma: 6.999%; ClpP1P2: -5.721%; CoaBC: 3.185%; Pks13 thioesterase: -21.28%. COc1ccccc1OCC(=O)NS(=O)(=O)c1cccnc1 read MtTrpRS: -3.219%; Toxoplasma: 3.427%; ClpP1P2: -5.845%; CoaBC: 16.93% & 21.5%; Pks13 thioesterase: -17.6%. Cc1nc(CN2CCCN(C(=O)c3c(C)oc(C)c3C)CC2)cs1 gave MtTrpRS: -7.147%; Toxoplasma: -26.2%; ClpP1P2: -36.18%; CoaBC: 1.044%; Pks13 thioesterase: -8.318%.

Once more, the final 2:

SMILES	MtTrpRS	Toxoplasma	ClpP1P2	CoaBC	Pks13 thioesterase
COc1ccccc1OCC(=O)NS(=O)(=O)c1cccnc1	-3.219%	3.427%	-5.845%	16.93% & 21.5%	-17.6%
Cc1nc(CN2CCCN(C(=O)c3c(C)oc(C)c3C)CC2)cs1	-7.147%	-26.2%	-36.18%	1.044%	-8.318%